According to PubChem BioAssay AID493014 (National Center for Advancing Translational Sciences (NCATS), 2011):
Some of the results follow. The main result of the screen is listed elsewhere. These columns were measured beside it and carry no call. Most of these compounds were active or inconclusive in the main read-out, so they are no random draw. Potencies come from curve fits of mixed quality, noted in brackets.

Assay: qHTS Assay to Find Inhibitors of Chronic Active B-Cell Receptor Signaling
Conditions: ABC-DLBCL IkBa-CBG/CBR reporter, luminescence ratio (green luciferase fused to IkBa over red control in TMD8 lymphoma cells), 4 h
Summary of the method: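 Cell line TMD8 (human ABC DLBCL), stably expressing tet-inducible CBG68-IkBa fusion and CBR; IMDM/0.5% FBS; cpd up to 46 uM; dox induction, 4 h, 37C/5% CO2; dual luminescence; green/red ratio; MG132 control.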

[1] = measured here: CBR red luminescence, cell number

## COc1ccc(-n2c(Cc3cccn3C)nnc2SCC(=O)Nc2cc(Cl)ccc2OC)cc1
[1]
  AC50: 29.1 µM [falling, single point]

## Cc1ccc2c(c1)C(=O)N1[C@H]3c4cc(Cl)ccc4OC[C@@H]3[C@H](c3ccccc3)[C@]1(C)C(=O)N2
[1]
  AC50: 2.06 µM [falling, full curve]

## CCn1c(NC(=O)Nc2ccccc2OC)nc2ccccc21
[1]
  AC50: 12.6 µM [falling, single point]

## O=C(O)c1ccc(N/N=C/C2=C(N3CCOCC3)C(=C\c3ccccc3)/CC2)cc1
[1]
  AC50: 2.51 µM [falling, full curve]

## Cc1ccnc2ccc(-c3nc4ccccc4o3)cc12
[1]
  AC50: 1 µM [rising, full curve, poor fit]

## Cc1cc(OCC(=O)NCc2ccccn2)c2c(C)c(C)c(=O)oc2c1
[1]
  AC50: 5.62 µM [rising, partial curve, poor fit]

## O=C1NC(=O)/C(=C/c2cccc3ccccc23)S1
[1]
  AC50: 1.26 µM [rising, full curve, poor fit]

## CN1c2ccccc2C(O)=C(C(=S)Nc2ccccc2)S1(=O)=O
[1]
  AC50: 16.4 µM [falling, single point]

## N#CCc1nn(-c2ccccc2)c2ncnc(N)c12
[1]
  AC50: 3.98 µM [falling, partial curve]

## CC(=O)N1CCN(c2ccc(NC(=O)C(C)Oc3ccc(Cl)cc3Cl)cc2)CC1 (configuration not stated)
[1]
  AC50: 32.6 µM [falling, single point]

## C=CCC[C@@H](Cc1ccc(F)cc1)C(=O)OC[C@@H](Cc1c[nH]c2ccccc12)NC(=O)[C@@H](CC=C)CC(=O)NCCO
[1]
  AC50: 32.6 µM [falling, single point]

## O=C1CN(c2ccccc2)C(=S)N1C(=O)c1ccccc1
[1]
  AC50: 10 µM [falling, partial curve, poor fit]

## CN1C(=O)c2ccccc2Sc2ccc(NC(=O)COc3ccc(Cl)cc3)cc21
[1]
  AC50: 10 µM [falling, partial curve, poor fit]

## Cc1ccc2nc(-c3ccc(NC(=O)COC(=O)c4cncc(Br)c4)cc3)sc2c1
[1]
  AC50: 0.461 µM [rising, full curve, poor fit]

## CCCCC(=O)Nc1cccc(-c2cn3ccccc3n2)c1
[1]
  AC50: 8.91 µM [rising, partial curve, poor fit]

## COc1ccc(-c2cn3cccnc3n2)cc1Br
[1]
  AC50: 10.3 µM [rising, single point]

## Cc1nn(-c2ccccc2)c2sc(C(=O)N3CCOCC3)cc12
[1]
  AC50: 18.4 µM [falling, partial curve, poor fit]

## O=C(CSC1CN(C(c2ccccc2)c2ccccc2)C1)N/N=C/c1ccc(Cl)cc1Cl
[1]
  AC50: 0.794 µM [falling, full curve, poor fit]

## NC(=O)c1ccc(-c2nnc(Nc3ccc(S(N)(=O)=O)cc3)c3ccccc23)cc1
[1]
  AC50: 22.4 µM [falling, single point]

## O=S(=O)(CC(CN1CCCC1)N1CCCC1)c1ccc2ccccc2c1 (configuration not stated)
[1]
  AC50: 0.206 µM [falling, full curve]

## COC(=O)c1cc(S(=O)(=O)N(C)c2ccc(C)c(C)c2)c[nH]1
[1]
  AC50: 3.55 µM [rising, partial curve]

## O=C(Nc1cccnc1)c1cc2cc(Br)ccc2o1
[1]
  AC50: 11.2 µM [falling, partial curve]

## Cn1nc(C(=O)Nc2cccc(Cl)c2)cc1C(=O)Nc1cccc(Cl)c1
[1]
  AC50: 35.5 µM [rising, single point]

## CC(=O)N(C1=C(N2CCOCC2)C(=O)c2ccccc2C1=O)c1ccc(C(=O)O)cc1
[1]
  AC50: 35.5 µM [falling, single point]

## COc1ccc(NC(=O)c2cc(C)on2)cc1OC
[1]
  AC50: 32.6 µM [falling, single point]

## O=C(NCCc1ccccc1)Oc1ccc(Cl)cc1
[1]
  AC50: 11.2 µM [falling, partial curve, poor fit]

## c1ccc(OCCOCCN2CCN(C(c3ccccc3)c3ccccc3)CC2)cc1
[1]
  AC50: 23.1 µM [falling, single point]

## S=C(NCC1CCCO1)N1CCN(c2ccccc2)CC1 (configuration not stated)
[1]
  AC50: 35.5 µM [rising, single point]

## NC(=O)C1(N2CCCCC2)CCN(c2nc(-c3ccccc3)cs2)CC1
[1]
  AC50: 32.6 µM [rising, partial curve, poor fit]

## CC1(C)C2CCC(C2)C1(C)N=C1OC(CCl)CS1 (configuration not stated)
[1]
  AC50: 0.794 µM [rising, full curve, poor fit]

## COc1ccc(C(=O)c2c(O)cc(-c3ccc(OC)cc3)oc2=O)cc1
[1]
  AC50: 9.2 µM [falling, partial curve, poor fit]

## Cc1ccccc1N1CCN(C(=O)CN2C(=O)c3ccccc3C2=O)CC1
[1]
  AC50: 0.146 µM [rising, full curve, poor fit]

## CCOC(=O)c1cc(-c2ccc(OC)cc2)nc2c1c(C)nn2CCC(N)=S
[1]
  AC50: 28.2 µM [falling, single point]

## COc1ccccc1C(=O)C1CCCN(C(=O)c2ccc3c(c2)OCCO3)C1 (configuration not stated)
[1]
  AC50: 35.5 µM [falling, single point]
Measured here: IkBa-CBG green luminescence
  AC50: 11.2 µM [rising, partial curve, poor fit]

## COc1ccc(C)c2sc(=NC(=O)c3cccc(N4C(=O)CCC4=O)c3)n(C)c12
[1]
  AC50: 7.94 µM [falling, partial curve]

## COC(=O)CCCC1=CC2=C(c3ccccc3)C(=O)C(C)(OC(=O)C3CCCC3)C(=O)C2=CN1c1ccccc1 (configuration not stated)
[1]
  AC50: 12.6 µM [rising, partial curve]

## OCCC1CCCCN1CC(O)COCc1ccc(Cl)cc1 (configuration not stated)
[1]
  AC50: 12.6 µM [rising, partial curve, poor fit]

## CC(C)[C@H](NC(=O)c1ccccc1F)C(=O)OCC(=O)NC1CC1
[1]
  AC50: 0.517 µM [rising, full curve, poor fit]

## CCOC(=O)C1CCN(C(C)=C2C(=O)c3ccccc3C2=O)CC1
[1]
  AC50: 29.1 µM [rising, single point]

## Cc1cc([N+](=O)[O-])ccc1N
[1]
  AC50: 29.1 µM [rising, single point]

## Cn1c2c(c(=O)n(C)c1=O)NC1(N2)C(=O)Nc2ccccc21 (configuration not stated)
[1]
  AC50: 2.82 µM [falling, full curve, poor fit]
